In PMC11592518:
No constants are given. Whether binding was seen depends on the method and setting. Binding seen in cells or lysates may run through a third protein. These calls come from enrichment with a bait or labelling near it, and not all partners need be listed. Where a sequence is shown, tags or fusion partners need not be part of it.

T1: Myc-tagged EhDUF2419 (Entamoeba histolytica) (UniProt C4LXA2)
T1 sequence: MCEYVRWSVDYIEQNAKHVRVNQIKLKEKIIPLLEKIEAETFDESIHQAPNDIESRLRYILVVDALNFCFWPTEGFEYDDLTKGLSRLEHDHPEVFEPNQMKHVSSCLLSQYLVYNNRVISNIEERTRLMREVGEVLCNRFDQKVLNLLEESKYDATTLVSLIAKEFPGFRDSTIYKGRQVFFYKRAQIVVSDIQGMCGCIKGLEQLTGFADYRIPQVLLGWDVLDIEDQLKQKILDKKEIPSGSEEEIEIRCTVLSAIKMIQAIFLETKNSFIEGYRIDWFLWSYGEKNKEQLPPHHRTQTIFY

B1: ubiquitin carboxyl-terminal hydrolase family protein (enzyme, UniProt C4M4Z7 1-806)
chain: MLSWKPSYPPCPDLTSSIETIPTAKSFITQLDEHLMNNNGIVLFEKIVNFIFSQPTLGYMAIPHYIRFNEKTPIPLINFVRYIIQYAPFDELPDCILPCIVSTALELIKRHEPKDTLDDQDNLLYELYKILIQAVVVDKKVISLINQTLHIIINQLISIHPLQFRELRNTVYQLISYLPNKDELMNQITNQLITQYHQQFIEALFAKPDNLRKYCGMENCGATCYINSVIQQLHNNESFKESILQSNCSGSCFILKTLFERMEQSKNWIVTRDVIENILGPSNKIDVSVQDDAYLFLTNLLDILNEDNKALINSCVNEFKVITKTTLKCTECQKVRERNEINTSISVDSVNNESLDQALSNLIKEEEMNDIDCLFCNKKTKQIKQISYELSESLIIGINRNKTIEGGRIYKFNKRFDFPLKMKWNDKEMILNGIVLHSGTTEMGHYTSIIKDNNGKWWKCNDKVVVEYNEKRILEDGYGTVSNSLSASILFYKTKEPNQIQNTNKEQVQNNNECNSMNIIVHDKQLYEWTEKQIIDSSSQWKSQECIDLLTLILYKGEYSFFKDIHSLITTIENKSISIIQELVSKQNELPTIITDCIVGTTTLKHALICIELFDKSSENNTWIATKLVELIPKYTTSHQHNLLSKLFVKCEEWFGLGEATPYEMTILHLLVHSSSLSEESYQLLLILCNYFQQWLIQNDIPFIQDVLSLITTTSQLNDIKKYKDSLKKLIKNTGTFLNLLPLLKSLIQRLITEKDTEKQTILKDLIVTTQCSIKSENSRTEVMDYYMTLLSKYSILQGCFETFIN
B2: RNA cytidine acetyltransferase (enzyme, UniProt C4M438 1-978)
chain: MSKKRVDPRLKTLIENGVKLGERTFIMIVGSKGVEQVMNIYYMYTKAANVAKDSVLWCYKKDLAFSSNQKKRLKHKMHNKGEAENAFELFLSTTEIKYVYYKESHKVLGNTFGMLVLQDFEAMTPNILCRTVETVRGGGLVVVLLTGMTSIKQLYNLNMDIHNRYRGEDTKEITSRFNERFVLSLSDNKNSIVVSDELDVVPVFEHTLRIDPVEKKVEIKEELENLRCAYEEVQYLNEIVKITTTADQAKCVVSLFDSLKEKTLNTTISITAGRGRGKSAALGLTIACSVALGYSNIFVTAPSPENVKTVFEFAVKGLEIFGMKEHLDFDVVQTTKSEYGKAVVRVNIHQNHRQTIQYILPNDTAQLSQAELLVIDEAAAIPLPLVKGLLGNYNVMLSTTTNGYEGTGRSLSLKLIKELREGISKYSNGRLFKECTLTEPIRYSSNDQVEKWLNKLLCLDASNTLMHITSTPSPDECELYYVNRDTLFSYNRDAEKFLQQLQGLFVTSHYKNTPNDMQLLADAPNHMIFILTGPVQNGEELPDILAAVQLSLEGGIARKRVSESWFRGKKETGDLIPWTLTQQFLDDEFAGLMGARVVRICTHPDVTNMGYGSKILQMLELYFTGCIVSLGEMEEEPKANNDQKEMETDEVEVRKELEPLLINPGNRKAEMLDYLGVAFGYTPQLSKFWTCSGYQPTYLRLTANDITGEHSCIMVKQLSKNMGNWEEQYTQDFKKRFSLLLGFEFKSMNAVDAFKLVQCKNKDSSVSLNFDQRAIKRLEYYSKNLIDYHIVLDLLPCIAQAVSNGLDIQLTITQQIIFVGMGLQFKSVDEIGSELKLASAQVMALFNKAIRKVVTFLEEKKEGTNAKQSMEEEVKATEEIKENDDISEEKEEEKQSEIDPSIIRQRKLKLKELGIDDPDMFKINNTTHEIKEIDTLKGRIPTTLSIQRKEKVDKLQVKYPQKPKSGKPKKHFKKMAKK
B3: RNA 3′-terminal phosphate cyclase (enzyme, UniProt C4M8E8 1-357)
chain: MAIELKGAKAFRYRIVLSTLLGQTIRITSIREQDSNPGIRDYEVDFLKLVSEVTSGAQIDIGKDGTSILYKPGIVNGGNFQHTCNNGRSLGYYVVPLLLILPFGKGSTTITLNGITNGNDDLSIDLIRSTTIPLIQKFGIEEDMLNVKVIKRGAPPVGDGEVVINSSIIKQLNPINLTEQGLVRSIRGVAYSTKTSPQMSNRMGEASKGILSQYLQDVYITTDHWKGKEAGTSPGYGVILTASTTNGNIISTELFGEAGNVPEDIGQKVACGLLREIETGGCIDSMHQPWLFILMTLCSEDVSKLRCGDLTAQAVECLRTIKALTGVTFQAQWDEKTKTSLLSCIGIGFCNLSRKIH
B4: tRNA (Cytosine-5-)-methyltransferase, EhDNMT2 (enzyme, UniProt C4LVM5 1-630)
chain: MEGEKKEEIQQEEIKKDDGRKPSKKDYHYITENPEMEKFYSQQTSIMNNEEFKEYIETMHKTLPTTFRLTRNEQTPIIKEELKRLINNIENEQERPIELSWYPGGIAYQLNASRGEIQKNKSLEELRKFIIVQTEAGVISRQEAVSMIPPLFLNVKPYHDVLDLCAAPGSKTTQILEMIHSGPEEATGIVIANDSDYKRCELLDHQTKRLQSPNIIITNHLAQNYPVKIGDQFMKFDRVLCDVPCSGDGTLRKNPDAWGKWNIMRGINLHKTQCTIMRRAVRLVKSCGRFVYSTCSLNPYEDEAVVAFILRNYPQIRLVDVSTELPTLKRCKGVSSWKVFNKEGEELTIKPDSKEDGSSKIPSTLFPPTEEEAKRFRLDRCMRFLPQLQNTGGFFVAVLEKVGDLDNDFKEEKQKRKKAPKPIKTRKGDSRLMPLNMTEGYETITQTIKNFYGLEGSGFDFECLGFKGDGKGTLHYLIKKAMDLVRINELKIVGGGLKLFRKHSVGSNSSFRLSNEGLSAVAHLFGERRKLEIKHEEFVKMLVSESPVQLGNEVMERAKDMEVGCVIFQIKDANSPINKQYFSGWKSKGLSLFVSKVDKKALCQNLKIELPKNELHEDSDSEKKEKKDEN
B5: Rho guanine nucleotide exchange factor EHI_159500 (protein, UniProt C4LX32 1-693)
chain: MLSPRFKQTLQLKKFSFDSKSKDIGSKYNTTQFQSFYQETFSNELVIFLINGSRFAIPRSCLQKPVALKSAISVFLSMNSSKKEERFELEVDSLVEKQLPIYFEFLINPYGPSTYSNEIFIGLALLRFGIHLEDVINYLKPSNLNEFIYELFERMNDVVVESIMLFDPDKEQSEFFLSYIKNVEHDSKNIVILEQLKHWFTPMIISDGNDFVESNYTPRSATSTDSERHSDLLSKSALDNGTYSPLLSPTRRSQGANSLGVPHEKIKGLKVQSLRGNLPQKKMESLPDIKKAAEIEANEKKTKKRKSFKEPLKNKEKEGIKSPKQKEKEKKVVTPLPKTRETLDTITMVEKDWSQKKYNEQEVIQLEEIIRRHMMQMMYNTNSLRKRKDAFIEFVETERSLLKNMEMMKIYFADPLENEPKVQVVFGLLSQCIAASKSILVTLEQGMNEYKYNTNLGEIINSTLQFISPLLEYSISYNTMATVWKEIKNTINGKKVVQQAAEKISPQTLEQLLIQPVQRAMRYPMMIEGLMKVTSPYNPDYRMLQSAYSGFHQFCQILNERAKMRDRLVEVAKEHQIDSIVAKGRFHLFTAKGELKDKKKQQVIIELCNDKIYFFGKKEKKNVLIKEYELSCDINSSTNGPNVTLVKYSELQPLGIVFNKEQDADEFIRLIQWSISTCFYKLDDERSWMDQLK
B6: rRNA adenine N(6)-methyltransferase (enzyme, UniProt C4LXN0 1-295)
chain: MAEPVGTNIFQFHKSEGQHILKNPMIAQQIVDAAELRRTDVVLEIGPGTGNLTMKMLPFCKKLIAIEIDPRMAAELKKRVSVTDYVKKLEIIQGDFLKVELPYFDVCVSNTPYSISSPLVFKLLNHRPQFRSAVLMFQREFAMRLVAKPGDPLYCRLSVNTQLLADVFHVMKVGRNNFKPPPKVESSVVRMIPVKPAPPLNLVEFDGFLRICFLRKHKTLSSLFRISSVLEVMEKNLRIIAKIRNIPIDENLDVKADVLQILEESGRAKSRAAQLTLDDFLELIYAFMKKNYHFC
B7: RING-type E3 ubiquitin transferase (enzyme, UniProt C4MAN3 1-575)
chain: MSREDCVICTDRIIVYSIGECNHPNVCYSCCFRSRVLYNDFTCPLCRHKNPIVIYTKKPMLFKELTKSSPAFQFKEYGVQTNDRDVYKYLKYLLSNTCRYCTSEFSTIEKLNEHYKKIHHVQFCSVCMQYQKSFTCDKQVFTDEELHDHIKEIDPETGVKKHPYCDFCNIPFFDLESLYNHLNTQHESCFICDKSSDHPIYFRDYDELFKHMSTQHYVCEDPNCIAKKYIAFSTAEELTNHRIIYHMKKGEKVILESGVFFTDTPQRGTRYGRRRNNFIPSQFEYHREDTTKIKEEKEEEEHLDLTGSSFPRLGGNTTTNHSEVYQGQITTGRRNQSQKKKRKENKELFPSIGENNNKAKSDMKEAYKQQEKQEIAMKVDLQQKMKDILGGRYDKFVQENEMFKRGDETAAMLLDRFHKYFAGNPDEKEMLAEFINSWPNTKQRNILIQVDNQRNEELAKMKMRDEMFMSAQHWEEEQQKRIKSRVNTQIIPESERKKIIEEDKTKLKRKKKQEKELFPSLGEGRNLPISPKPSSKTWSQIARSTSLEAQKAKKERMDLEKARLDDSKFPKLGSK

These binders were tested against T1, Myc-tagged EhDUF2419 (Entamoeba histolytica) (assay: affinity purification with mass spectrometry; anti-c-Myc agarose beads with whole-cell lysate (1 to 2 mg/mL) of MycEhDUF2419-overexpressing trophozoites (24 ug/mL G418), 2 h at 4 °C, six low-stringency washes (0.1% Tween 20, 0.1% NP-40); LC-MS/MS after in-gel trypsin digestion; three replicates compared with empty vector trophozoites (fold change > 2, p < 0.05)).

binding, binds:
B1
B2
B3
B4
B5
B6
B7
